Test results from article PMC2758934 (Nature structural & molecular biology, 2009).

Molecular target: LeuT (Aquifex aeolicus, UniProt O67854)
Assay: biochemical

Compound `CN[C@H]1CC[C@@H](c2ccc(Cl)c(Cl)c2)c2ccccc21` [sertraline] has an IC50 of 19.7 ± 9.2 µM.
